No constants are given. Whether binding was seen depends on the method and setting. Binding seen in cells or lysates may run through a third protein. Binding calls can cover weak binding; strength is not graded here.

Assay [1] has as its target T1, Repressor element 1-silencing transcription factor (REST) in H4 astrocytes (proximity ligation assay) (UniProt Q13127).
T1 sequence: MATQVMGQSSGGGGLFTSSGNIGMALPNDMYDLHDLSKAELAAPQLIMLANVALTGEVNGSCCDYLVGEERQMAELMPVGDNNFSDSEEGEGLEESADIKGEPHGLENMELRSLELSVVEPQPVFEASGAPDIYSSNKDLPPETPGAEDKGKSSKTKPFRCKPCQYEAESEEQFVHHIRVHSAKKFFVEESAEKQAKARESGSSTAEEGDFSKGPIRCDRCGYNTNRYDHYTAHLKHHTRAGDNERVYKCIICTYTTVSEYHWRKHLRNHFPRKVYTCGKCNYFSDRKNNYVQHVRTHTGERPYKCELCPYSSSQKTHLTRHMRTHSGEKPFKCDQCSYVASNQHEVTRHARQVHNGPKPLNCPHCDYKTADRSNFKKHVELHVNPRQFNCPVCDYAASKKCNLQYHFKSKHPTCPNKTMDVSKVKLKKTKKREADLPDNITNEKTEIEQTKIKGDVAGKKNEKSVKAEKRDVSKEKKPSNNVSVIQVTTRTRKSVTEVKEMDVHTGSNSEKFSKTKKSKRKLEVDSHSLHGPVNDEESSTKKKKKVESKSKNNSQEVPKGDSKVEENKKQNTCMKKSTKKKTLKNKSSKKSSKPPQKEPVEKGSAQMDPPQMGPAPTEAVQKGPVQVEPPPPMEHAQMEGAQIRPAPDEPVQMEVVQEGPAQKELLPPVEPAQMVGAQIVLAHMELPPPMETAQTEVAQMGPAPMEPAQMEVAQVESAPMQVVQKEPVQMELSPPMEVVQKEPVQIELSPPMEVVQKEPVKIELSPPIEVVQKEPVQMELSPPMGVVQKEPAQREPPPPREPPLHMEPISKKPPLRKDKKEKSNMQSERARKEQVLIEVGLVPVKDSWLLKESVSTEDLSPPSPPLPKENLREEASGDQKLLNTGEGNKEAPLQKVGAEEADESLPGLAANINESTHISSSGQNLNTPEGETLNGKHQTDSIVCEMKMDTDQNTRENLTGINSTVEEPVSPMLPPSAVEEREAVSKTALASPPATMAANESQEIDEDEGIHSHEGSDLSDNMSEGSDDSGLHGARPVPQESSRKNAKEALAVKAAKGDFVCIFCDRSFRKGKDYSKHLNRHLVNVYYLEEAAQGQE
Nature of the assay: proximity ligation; H4 astrocytes fixed with 4% formaldehyde; primary antibodies for REST, CBP/p300 and/or CREB (1:250, 4 °C overnight); PLA puncta in the nuclear region; also done with DN-REST, said to interfere with the complexing.

Assay [2] has as its target T2, Repressor element 1-silencing transcription factor (REST), overexpressed in H4 astrocytes (UniProt Q13127).
T2 sequence: T1 sequence
Description: co-IP; 400 μg nuclear extract of H4 astrocytes overexpressing REST, 2 μg antibody, protein A/G-agarose overnight at 4 °C, washed with RIPA buffer, extracts treated with DNase I; Western blot; which antibody precipitated is not told.

For the substance “CREB-binding protein (CBP)/p300 (human (endogenous in H4))”, the binding entry in assay [1] and in assay [2] was “binds” in each case.

The values above are taken from publication PMC8626589.
